# For at least one compound, name, drawing or mass did not settle the structure.
# Test system: PMA-induced APOBEC3B upregulation
# Assay: Inhibitor pretreatment before PMA induction of APOBEC3B in MCF10A cells, RT-qPCR
# Format: cell-based, human
# Settings: 30-minute pretreatment, then PMA 25 ng/mL for six hours
# Protocol: PMA is a well-known agonist of PKC, but it also affects other cellular processes. To determine whether APOBEC3B induction by PMA occurs through PKC signal transduction or an alternative mechanism, a panel of existing PKC inhibitors that vary with respect to class selectivity were analyzed. MCF10A cells were pre-treated for 30 minutes with varying concentrations of the pan-PKC inhibitor G66983 (Gschwendt et al., FEBS Lett. 392(2):77-80, 1996) and then treated for six hours with PMA (25 ng/mL). […] As additional controls, MCF10A cells were pretreated in parallel with the phosphoinositol 3 kinase (PI3K) inhibitor, LY294002, and the mitogen-activated protein kinase kinase (MEK) inhibitor, U0126, prior to PMA induction (FIGS. 2B and 2C).
# For induction experiments, 2.5×10^5 cells were plated in a 6-well plate 1 day prior to drug treatment. PMA was then added to the media and incubated at 37° C. with 5% CO2 for six hours unless otherwise indicated. Cells were harvested, RNA was extracted, and RT-qPCR was performed as previously reported (Refsland et al. 2010, Nucleic Acids Res 38:4274-4284). For experiments utilizing inhibitors, cells were pretreated with inhibitors 30 minutes prior to PMA induction (25 ng/mL). […]
smiles,measurement,value
O=c1cc(N2CCOCC2)oc2c(-c3ccccc3)cccc12 [LY294002],effect on PMA-induced APOBEC3B induction,not and no suppression

# Source: US20200046671A1, “APOBEC3B MUTAGENESIS AND IMMUNOTHERAPY” (Regents of the University of Minnesota, priority 2015, published 2020)
